# ± gives the standard deviation. The entries are a selection whose mix differs from that of the whole data set. Many entries were measured with a wide error.
# Test system: EfPiwi piRISC loaded with piRNA #1 (26 nt)
# Test: pre-steady-state target cleavage rate (min^-1); guide: piRNA #1 5'p-UGAGGUAGUAGGUUGUAUAGUAUCCA; MIWI and MILI are mouse PIWI proteins and EfPiwi is from a freshwater sponge; tags in brackets are library labels; higher = faster piRNA-guided slicing of the target
# Conditions: auxiliary factor: 500 nM Ephydatia muelleri Gtsf1
# Summary of the method: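 In Cleave-'n-Seq, a transcribed, DNA-blocked target RNA library (0.1 nM) was combined with 1 nM active affinity-purified piRISC bearing one synthetic guide, with or without 500 nM GTSF1 partner protein. Reactions ran in HEPES–potassium acetate buffer at 33 °C for 0–8 or 0–960 min. Uncleaved targets were sequenced and normalised to depth and to weakly complementary targets, three trials were pooled, and k3 was capped at 0.0001 min^-1. The pre-steady-state cleavage rate was obtained by fitting a burst-and-steady-state model.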
row,Sequence,pre-steady-state target cleavage rate
1,GGAGACCUUACUUUACAACCUACUACGUCA,0.00198 ± 0.004
2,GGAGACCUAUCUAUACAACCUACAUCCUCA,0.00178 ± 0.005
3,GGAGACCUAACUAUACAACCAUGAUGGAGA [g11:g21:cont:t1A],0.00117 ± 0.0073
4,GGAGAGGAUACUAUACCACCUACUACCUCA,0.00648 ± 0.003
5,GGAGACCUUACUAUACAACCUACUAGCACA,0.00206 ± 0.0025
6,GGAGUGGAUAGUAUACAACCUACUAGCUCA,0.00291 ± 0.0018
7,GGAGACCUUACUAUACAACCUACUACCUCA [g2:g22:cont:t1A],0.0238 ± 0.0084
8,GGAGACCUUACUACACAACCUACUACCUCA,0.00432 ± 0.0039
9,GGAGACCAUACUACACAACCUACUACCUCA,0.0182 ± 0.0078
10,GGAGACGGAUACUAUACAACCUACUACCUCA,0.221 ± 0.062
11,GGAGACCAUACUUUACAACCUACUAGCUCA,0.00215 ± 0.0038
12,GGAGAGGAUUCUAUACAACCUACUACGUCA,0.00169 ± 0.0031
13,GGAGACCAUACUAUACAACCAACUACCUCA,0.00627 ± 0.0022
14,GGAGACCUAUGUAUACAACCUACUACGUGA,0.000475 ± 0.01
15,GGAGACCAUACUAUACAACCUACUACCUCCA,0.0119 ± 0.0039
16,GGAGACCUAACUAUACAAGGUACUACCUCA,0.0019 ± 0.0033

# Single values from above.
# GGAGAGGAUUCUAUACAACCUACUACGUCA – pre-steady-state target cleavage rate: 0.00169 ± 0.0031
# GGAGACCUUACUAUACAACCUACUACCUCA [g2:g22:cont:t1A] – pre-steady-state target cleavage rate: 0.0238 ± 0.0084
